{"source": "the supplement of paper PMC8728848", "experiment_in_all_cases": "glycan array binding signal (z-score within array); higher = stronger binding", "conditions_in_all_cases": "glycan notation: IUPAC condensed, linker removed", "key": {"[1]": {"target": "Gal(b1-3)[Neu5Ac(b2-6)]GalNAc", "procedure,_shortened": "(§1)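 Glycan array data were curated from 3228 arrays in the Consortium for Functional Glycomics database and kept only where the protein sequence was available. Glycan names were converted to IUPAC-condensed notation, and columns mapping to the same glycan were averaged. The binding signal is a within-array Z-score, averaged across arrays of the same protein sequence at different concentrations or buffers and across linkers. Negative Z-scores can be read as non-binding.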"}, "[2]": {"target": "Gal(b1-4)GalNAc(a1-3)[Fuc(a1-2)]Gal(b1-4)GlcNAc", "procedure,_shortened": "as §1"}, "[3]": {"target": "Gal(b1-4)GalNAc(b1-3)[Fuc(a1-2)]Gal(b1-4)GlcNAc", "procedure,_shortened": "as §1"}, "Gal(b1-4)Glc": {"target": "Gal(b1-4)Glc", "procedure,_shortened": "as §1"}, "Gal(b1-4)Glc6S": {"target": "Gal(b1-4)Glc6S", "procedure,_shortened": "as §1"}, "Gal(b1-4)GlcNAc": {"target": "Gal(b1-4)GlcNAc", "procedure,_shortened": "as §1"}, "[4]": {"target": "Gal(b1-4)GlcNAc(b1-2)Man(a1-3)[Gal(b1-4)GlcNAc(b1-2)Man(a1-6)]Man(b1-4)GlcNAc(b1-4)GlcNAc", "procedure,_shortened": "as §1"}, "[5]": {"target": "Gal(b1-4)GlcNAc(b1-3)Gal(b1-3)GlcNAc", "procedure,_shortened": "as §1"}, "[6]": {"target": "Gal(b1-4)GlcNAc(b1-3)Gal(b1-4)Glc", "procedure,_shortened": "as §1"}, "[7]": {"target": "Gal(b1-4)GlcNAc(b1-3)Gal(b1-4)GlcNAc", "procedure,_shortened": "as §1"}, "[8]": {"target": "Gal(b1-4)GlcNAc(b1-3)Gal(b1-4)GlcNAc(b1-3)Gal(b1-4)GlcNAc", "procedure,_shortened": "as §1"}, "[9]": {"target": "Gal(b1-4)GlcNAc(b1-3)Gal(b1-4)[Fuc(a1-3)]GlcNAc(b1-3)Gal(b1-4)[Fuc(a1-3)]GlcNAc", "procedure,_shortened": "as §1"}, "[10]": {"target": "Gal(b1-4)GlcNAc(b1-3)GalNAc", "procedure,_shortened": "as §1"}, "[11]": {"target": "Gal(b1-4)GlcNAc(b1-3)[Gal(b1-4)GlcNAc(b1-6)]GalNAc", "procedure,_shortened": "as §1"}, "[12]": {"target": "Gal(b1-4)GlcNAc(b1-6)Gal(b1-4)GlcNAc(b1-6)GalNAc", "procedure,_shortened": "as §1"}, "[13]": {"target": "Gal(b1-4)GlcNAc(b1-6)GalNAc", "procedure,_shortened": "as §1"}, "[14]": {"target": "Gal(b1-4)GlcNAc(b1-6)[Gal(b1-3)]GalNAc", "procedure,_shortened": "as §1"}, "Gal3S(b1-3)GalNAc": {"target": "Gal3S(b1-3)GalNAc", "procedure,_shortened": "as §1"}, "Gal3S(b1-3)GlcNAc": {"target": "Gal3S(b1-3)GlcNAc", "procedure,_shortened": "as §1"}, "[15]": {"target": "Gal3S(b1-3)[Fuc(a1-4)]GlcNAc", "procedure,_shortened": "as §1"}, "Gal3S(b1-4)Glc": {"target": "Gal3S(b1-4)Glc", "procedure,_shortened": "as §1"}, "Gal3S(b1-4)Glc6S": {"target": "Gal3S(b1-4)Glc6S", "procedure,_shortened": "as §1"}, "Gal3S(b1-4)GlcNAc": {"target": "Gal3S(b1-4)GlcNAc", "procedure,_shortened": "as §1"}, "Gal3S(b1-4)GlcNAc6S": {"target": "Gal3S(b1-4)GlcNAc6S", "procedure,_shortened": "as §1"}, "[16]": {"target": "Gal3S(b1-4)[Fuc(a1-3)]Glc", "procedure,_shortened": "as §1"}, "Gal3S6S(b1-4)GlcNAc": {"target": "Gal3S6S(b1-4)GlcNAc", "procedure,_shortened": "as §1"}, "Gal3S6S(b1-4)GlcNAc6S": {"target": "Gal3S6S(b1-4)GlcNAc6S", "procedure,_shortened": "as §1"}, "Gal4S(b1-4)GlcNAc": {"target": "Gal4S(b1-4)GlcNAc", "procedure,_shortened": "as §1"}, "Gal4S6S(b1-4)GlcNAc": {"target": "Gal4S6S(b1-4)GlcNAc", "procedure,_shortened": "as §1"}, "Gal6S(b1-4)Glc": {"target": "Gal6S(b1-4)Glc", "procedure,_shortened": "as §1"}, "Gal6S(b1-4)Glc6S": {"target": "Gal6S(b1-4)Glc6S", "procedure,_shortened": "as §1"}, "Gal6S(b1-4)GlcNAc": {"target": "Gal6S(b1-4)GlcNAc", "procedure,_shortened": "as §1"}, "GalNAc(a1-3)Gal": {"target": "GalNAc(a1-3)Gal", "procedure,_shortened": "as §1"}, "GalNAc(a1-3)GalNAc": {"target": "GalNAc(a1-3)GalNAc", "procedure,_shortened": "as §1"}, "[17]": {"target": "GalNAc(b1-3)Gal(a1-4)Gal(b1-4)GlcNAc", "procedure,_shortened": "as §1"}, "GalNAc(b1-3)GalNAc": {"target": "GalNAc(b1-3)GalNAc", "procedure,_shortened": "as §1"}, "GalNAc(b1-4)GlcNAc": {"target": "GalNAc(b1-4)GlcNAc", "procedure,_shortened": "as §1"}, "Glc(a1-4)Glc": {"target": "Glc(a1-4)Glc", "procedure,_shortened": "as §1"}, "Glc(a1-6)Glc(a1-6)Glc": {"target": "Glc(a1-6)Glc(a1-6)Glc", "procedure,_shortened": "as §1"}, "Glc(b1-4)Glc": {"target": "Glc(b1-4)Glc", "procedure,_shortened": "as §1"}, "Glc(b1-6)Glc": {"target": "Glc(b1-6)Glc", "procedure,_shortened": "as §1"}, "GlcA(b1-3)Gal": {"target": "GlcA(b1-3)Gal", "procedure,_shortened": "as §1"}, "GlcA(b1-6)Gal": {"target": "GlcA(b1-6)Gal", "procedure,_shortened": "as §1"}, "[18]": {"target": "GlcNAc(a1-3)Gal(b1-4)GlcNAc", "procedure,_shortened": "as §1"}, "[19]": {"target": "GlcNAc(a1-6)Gal(b1-4)GlcNAc", "procedure,_shortened": "as §1"}}, "note": "The other results are listed elsewhere or left out.", "data": [{"binder": "SrpA (Streptococcus sanguis) (protein) SSKSESTVNSQSASSETNRSSTNNGSTSSSSETARVRKRRATDTTPPTITVPSDIIAYRGEEFEFYFEITDDSGQVKNIELSTFGKPLGLNWLEYSEDNFNVPGNATSDNPLRVRVHGTVPLNEPIPADKNRAQFTRTIRAWDAAGNVSSNITFVIKYRAQTDKYNPADPTITYVDRLSSLSPSEKNAVEAAVRAANPQIPAAARITVSANGTVTITYPDSSTDTITANRVVKDLASSRSALT", "values": [{"measurement": "glycan array binding signal (z-score)", "setting": "[1]", "result": -0.742}, {"measurement": "glycan array binding signal (z-score)", "setting": "[2]", "result": -0.52}, {"measurement": "glycan array binding signal (z-score)", "setting": "[3]", "result": -0.16}, {"measurement": "glycan array binding signal (z-score)", "setting": "Gal(b1-4)Glc", "result": -0.187}, {"measurement": "glycan array binding signal (z-score)", "setting": "Gal(b1-4)Glc6S", "result": 0.135}, {"measurement": "glycan array binding signal (z-score)", "setting": "Gal(b1-4)GlcNAc", "result": 0.182}, {"measurement": "glycan array binding signal (z-score)", "setting": "[4]", "result": -0.189}, {"measurement": "glycan array binding signal (z-score)", "setting": "[5]", "result": -0.381}, {"measurement": "glycan array binding signal (z-score)", "setting": "[6]", "result": -0.471}, {"measurement": "glycan array binding signal (z-score)", "setting": "[7]", "result": -0.43}, {"measurement": "glycan array binding signal (z-score)", "setting": "[8]", "result": 0.016}, {"measurement": "glycan array binding signal (z-score)", "setting": "[9]", "result": 0.199}, {"measurement": "glycan array binding signal (z-score)", "setting": "[10]", "result": -0.071}, {"measurement": "glycan array binding signal (z-score)", "setting": "[11]", "result": -0.645}, {"measurement": "glycan array binding signal (z-score)", "setting": "[12]", "result": -0.076}, {"measurement": "glycan array binding signal (z-score)", "setting": "[13]", "result": -0.04}, {"measurement": "glycan array binding signal (z-score)", "setting": "[14]", "result": -0.254}, {"measurement": "glycan array binding signal (z-score)", "setting": "Gal3S(b1-3)GalNAc", "result": 1.2}, {"measurement": "glycan array binding signal (z-score)", "setting": "Gal3S(b1-3)GlcNAc", "result": 0.646}, {"measurement": "glycan array binding signal (z-score)", "setting": "[15]", "result": 0.569}, {"measurement": "glycan array binding signal (z-score)", "setting": "Gal3S(b1-4)Glc", "result": -0.222}, {"measurement": "glycan array binding signal (z-score)", "setting": "Gal3S(b1-4)Glc6S", "result": 0.256}, {"measurement": "glycan array binding signal (z-score)", "setting": "Gal3S(b1-4)GlcNAc", "result": -0.058}, {"measurement": "glycan array binding signal (z-score)", "setting": "Gal3S(b1-4)GlcNAc6S", "result": 0.217}, {"measurement": "glycan array binding signal (z-score)", "setting": "[16]", "result": 0.226}, {"measurement": "glycan array binding signal (z-score)", "setting": "Gal3S6S(b1-4)GlcNAc", "result": 0.125}, {"measurement": "glycan array binding signal (z-score)", "setting": "Gal3S6S(b1-4)GlcNAc6S", "result": 0.588}, {"measurement": "glycan array binding signal (z-score)", "setting": "Gal4S(b1-4)GlcNAc", "result": 1.07}, {"measurement": "glycan array binding signal (z-score)", "setting": "Gal4S6S(b1-4)GlcNAc", "result": 0.56}, {"measurement": "glycan array binding signal (z-score)", "setting": "Gal6S(b1-4)Glc", "result": -0.446}, {"measurement": "glycan array binding signal (z-score)", "setting": "Gal6S(b1-4)Glc6S", "result": -0.622}, {"measurement": "glycan array binding signal (z-score)", "setting": "Gal6S(b1-4)GlcNAc", "result": 0.624}, {"measurement": "glycan array binding signal (z-score)", "setting": "GalNAc(a1-3)Gal", "result": 1.03}, {"measurement": "glycan array binding signal (z-score)", "setting": "GalNAc(a1-3)GalNAc", "result": 0.348}, {"measurement": "glycan array binding signal (z-score)", "setting": "[17]", "result": -0.265}, {"measurement": "glycan array binding signal (z-score)", "setting": "GalNAc(b1-3)GalNAc", "result": 0.055}, {"measurement": "glycan array binding signal (z-score)", "setting": "GalNAc(b1-4)GlcNAc", "result": 0.14}, {"measurement": "glycan array binding signal (z-score)", "setting": "Glc(a1-4)Glc", "result": -0.28}, {"measurement": "glycan array binding signal (z-score)", "setting": "Glc(a1-6)Glc(a1-6)Glc", "result": 0.658}, {"measurement": "glycan array binding signal (z-score)", "setting": "Glc(b1-4)Glc", "result": -0.813}, {"measurement": "glycan array binding signal (z-score)", "setting": "Glc(b1-6)Glc", "result": 0.318}, {"measurement": "glycan array binding signal (z-score)", "setting": "GlcA(b1-3)Gal", "result": -0.476}, {"measurement": "glycan array binding signal (z-score)", "setting": "GlcA(b1-6)Gal", "result": -0.736}, {"measurement": "glycan array binding signal (z-score)", "setting": "[18]", "result": -0.757}, {"measurement": "glycan array binding signal (z-score)", "setting": "[19]", "result": -0.435}]}]}
